Results taken from patent US20120121574A1, “ANTIMICROBIAL, ANTIVIRAL, ANTICANCER AND IMMUNOMODULATORY PEPTIDES AND USES THEREFORE” (priority 2010, published 2012).
For some of these results: Part of at least one peptide drawing is inferred or uncertain, most often the ends. Some compounds share one wording; it may come from a single statement. Some of these results come from one statement about several compounds together. Where a SMILES comes first, the peptide text is derived from it.

How the values were obtained:
[1] = system: C. albicans SC5314 strain
Experimental: In vitro activity of N10K against C. albicans SC5314 strain. The candidacidal activity of N10K peptide against C. albicans was assessed by a conventional colony forming unit (CFU) assay as previously described (Polonelli et al., 2003; Manfredi et al., 2005). Briefly, cells of C. albicans SC5314 were incubated at 37° C. for 6 hours (hr) in the presence of N10K at the concentration indicated of 20, 12.5 or 6.25 microgram/ml, or in distilled water as control (C). After incubation, cell suspensions were plated on Sabouraud dextrose agar and incubated at 30° C. for 48 hours when CFU were counted (** P<0.01 for N10K treated versus untreated cells, by t test). […]
The alanine-substituted derivatives (asd), defined according to the position held by the alanine-substituted aminoacid, were tested against C. albicans by a conventional colony forming unit (CFU) as previously described (Polonelli et al., 2003). Briefly, cells of C. albicans SC5314 were incubated at 37° C. for 6 hours in the presence of N10K or N10K asd at different scalar concentrations or distilled water as control. After incubation, cell suspensions were plated on Sabouraud dextrose agar and incubated at 30° C. for 48 hours when CFU were counted. Based on several independent replications, the EC50 value of each peptide was calculated by nonlinear regression analysis using Graph Pad Prism 4.01 software, San Diego, Calif., USA. […]
In vitro microbicidal activity of N10K derivative with 2 amino acid substitutions, or 80% sequence identity with native N10K, namely peptide Seq Id. No. 25 was tested against Candida albicans SC5314 as determined by Colony Forming Unit assay.

[2] = system: C. neoformans 6995 strain
HIV IIIB (X4) = assay: in vitro HIV IIIB infection of PBMC, p24 ELISA; assay type: cell-based, HIV-1; conditions: pre-incubation protocol, 10 micrograms/ml for two hours before infection
[3] = system: E. coli ATCC 25922 strain; assay: CFU assay against E. coli; assay type: cell-based, Escherichia coli
M. furfur 101 strain = assay: CFU assay against M. furfur; assay type: cell-based, Malassezia furfur
[4] = system: P. aeruginosa ATCC 25853 strain; assay: CFU assay against P. aeruginosa; assay type: cell-based, Pseudomonas aeruginosa
[5] = system: K. pneumoniae ATCC 700603 strain; assay: CFU assay against K. pneumoniae; assay type: cell-based, Klebsiella pneumoniae
A. fumigatus 1163 strain = assay: CFU assay against A. fumigatus conidia; assay type: cell-based, Aspergillus fumigatus
S. aureus 29213 strain = assay: CFU assay against S. aureus; assay type: cell-based, Staphylococcus aureus
Experimental: (§1) In vitro activity of N10K against S. aureus 29213 strain. The microbicidal activity of N10K peptide against S. aureus has been evaluated by a conventional CFU assay. Cells of S. aureus 29213 have been incubated at 37° C. for 5 hours in the presence of N10K at the concentration of 50, 45 or 40 micrograms/ml, or in distilled water as control growth. After the incubation period, the cell suspensions have been plated on Mueller Hinton agar, then incubated at 37° C. and observed for CFU enumeration after 24 hours.
as §1, with “T11F” for “N10K”, “bactericidal” for “microbicidal”, “40” for “45”, “30” for “40”
In vitro activity of H4L against S. aureus 29213 strain. The bactericidal activity of H4L peptide against S. aureus has been evaluated by a conventional CFU) assay. Cells of S. aureus 29213 have been incubated at 37° C. for 5 hours in the presence of peptides at the concentration of 100 micrograms/ml, or in distilled water as control growth. After the incubation period, the cell suspensions have been plated on Mueller Hinton agar, then incubated at 37° C. and observed for CFU enumeration after 24 hours.
as §1, with “MoA VHCDR3” for “N10K”, “100” for “50, 45 or 40”

HIV BaL (R5) = assay: in vitro HIV BaL infection of PBMC, p24 ELISA; assay type: cell-based, HIV-1; conditions: 10 micrograms/ml added every 4 days after infection
[6] = system: peritoneal murine macrophages (PM); assay: in vitro immunomodulatory activity on murine peritoneal macrophages (PM); assay type: cell-based; conditions: mouse peritoneal macrophages, FIG. 73
Experimental: In vitro immunomodulatory activity of MoA VHCDR3 on murine immune cells. FIGS. 47-51 are graphs showing TNF-α and IL-6 production by PM and PMN stimulated with MoA CDRs and mouse MoA VHCDR3 uptake by different cell populations. Cells were cultured in the presence or absence (NS) of human and/or mouse CDRs, lipopolisaccharide (LPS), or negative control peptide (NC) (all 10 micrograms/ml) for 18 hr. Both PM and PMN cell populations were 5×10^6/ml. After incubation, TNF-α and IL-6 levels were evaluated in culture supernatants by specific ELISA assays (* P<0.05 treated vs untreated cells, n=7). In FIG. 51, dendritic cells (DC), PM, PMN, and T cells (all 1×10^6/ml) were incubated for 1 hr in the presence or absence (NS) of biotinylated (b)-MoA VHCDR3 or b-NC (both 10 micrograms/ml). After incubation, permeabilized cells were reacted with FITC-labelled mAb to biotin (b) and analyzed by FACScan flow cytometry. Data are reported as the percentage of positive cells *, P<0.05 (b-VHCDR3 treated vs untreated cells, n=5). Error bars, s.e.m. FIGS. 52A and B show graphs and colored cell staining micrograph of kinetic of VHCDR3 uptake by PM. PM (1×10^6/ml) were incubated for different times with b-VHCDR3 or b-NC (all 10 micrograms/ml). After incubation, permeabilized cells were reacted with FITC-labelled mAb to biotin and analyzed by FACScan flow cytometry. Data are reported as the mean fluorescence intensity (MFI) and percentage of positive cells (FIG. 52A) (* P<0.05 b-VHCDR3-treated vs untreated cells, n=7). Error bars, s.e.m. In selected experiments, cells were incubated for 1 hr as above described, reacted with FITC-labelled mAb to biotin in the presence of Evans' Blue as a counter stain, and subsequently examined under fluorescent light microscopy (FIG. 52B). Note the green fluorescence of b-VHCDR3 treated cells. Original magnification 20×. In FIGS. 53 and 54 is shown the phospho-Akt activation and TNF-α production in PM stimulated with MoA VHCDR3. PM (3×10^6/ml) were stimulated for 1 hr in the presence or absence (NS) of MoA VHCDR3, LPS, an irrelevant control peptide (NC) or a scrambled peptide (SP) (all 10 micrograms/ml). After incubation, cell lysates were subjected to Western blotting. Membranes were incubated with Abs to pAkt and Akt; pAkt was normalized against Akt (FIG. 53)*, P<0.05 (treated vs untreated cells, n=5). […] PM (5×10^6/ml) were stimulated for 18 hr as above described. After incubation, TNF-α level was evaluated in culture supernatants by specific ELISA assays. (FIG. 54)*, P<0.05 (treated vs untreated cells, n=5). […] After incubation, total RNA was isolated and analyzed for mRNA expression with RT-PCR (FIG. 56). Transcript copy numbers were determined by qPCR using cDNA as a template. […]

[7] = peptide 100 micrograms/ml, 6 hours 37° C.
[8] = peptide 100 micrograms/ml, 5 hours 37° C.

## CC(C)C[C@H](NC(=O)[C@H](C)NC(=O)[C@H](CCC(=O)O)NC(=O)[C@@H](N)Cc1c[nH]cn1)C(=O)O [Peptide H4L, H E A L] (H-HEAL-OH)
[1]; Table III, in vitro, Fungus
  Activity: cidal
[1]; [7]
  candidacidal activity (CFU): showed candidacidal activity
[2]; Table III, in vitro
  Activity: cidal
[2]; [7]
  fungicidal activity (CFU): showed fungicidal activity
HIV IIIB (X4)
  viral replication (p24 antigen): seemed to control HIV IIIB replication only during the first 8 days of culture
[3]; Table III, in vitro
  Activity: cidal
[3]; [8]
  bactericidal activity (CFU): showed bactericidal activity
M. furfur 101 strain; Table III, in vitro
  Activity: cidal
M. furfur 101 strain; peptide 100 micrograms/ml, 6 hours 30° C.
  fungicidal activity (CFU): showed fungicidal activity
[4]; Table III, in vitro
  Activity: cidal
[4]; [8]
  bactericidal activity (CFU): showed bactericidal activity
[5]; Table III, in vitro
  Activity: cidal
[5]; [8]
  bactericidal activity (CFU): showed bactericidal activity
A. fumigatus 1163 strain; Table III, in vitro
  Activity: cidal
A. fumigatus 1163 strain; peptide 100 micrograms/ml, 18 hours 30° C.
  fungicidal activity (CFU): showed fungicidal activity
S. aureus 29213 strain; Table III, in vitro
  Activity: cidal
S. aureus 29213 strain; [8]
  bactericidal activity (CFU): showed bactericidal activity
HIV BaL (R5)
  viral replication (p24 antigen): kept low the BaL replication till the day 8 of infection only if it was supplied every 4 days after infection

## A Q Y G N L W F A Y (AQYGNLWFAY) [Peptide A1]
[6]
  increase of TNF-α induction over VHCDR3: ≥ 50%

## G A Y G N L W F A Y (GAYGNLWFAY) [Peptide A2]
[6]
  increase of TNF-α induction over VHCDR3: ≥ 50%

## G Q Y G N A W F A Y (GQYGNAWFAY) [Peptide A6]
[6]
  increase of TNF-α induction over VHCDR3: ≥ 50%

## G Q Y G N L W A A Y (GQYGNLWAAY) [Peptide A8]
[6]
  increase of TNF-α induction over VHCDR3: ≥ 50%
